In patent publication US20050106582A1, “Compositions and methods utilizing stable reporter cell lines for detection of CREB-dependent signal transduction” (Stratagene, priority 1999, published 2005):
Some results were stated once for a whole list of compounds, not compound by compound.

System: GAL4-CREB
Test: Luciferase reporter assay in RCLH-CREB stable cells treated with extracellular stimuli
Assay type: cell-based, human
Conditions: compound by itself, not shown

SMILES	increase in luciferase activity over controls
C=C[C@@]1(C)CC(=O)[C@]2(O)[C@@]3(C)[C@@H](O)CCC(C)(C)[C@@H]3[C@H](O)[C@H](OC(C)=O)[C@@]2(C)O1 [forskolin]	less than 3 fold
CC(C)Cn1c(=O)n(C)c(=O)c2[nH]cnc21 [IBMX, 3-isobutyl-1-methylxanthine]	less than 3 fold
CCCC(=O)Nc1ncnc2c1ncn2[C@@H]1O[C@@H]2COP(=O)(O)O[C@H]2[C@H]1OC(=O)CCC [Dibutyryl cAMP, dibutyryl cAMP]	less than 3 fold
